Results taken from patent publication US9867372B2, “Tetrazolinone compound and use of same” (SUMITOMO CHEMICAL COMPANY, LIMITED, priority 2013, dated 2018).
Some of these results come from one statement about several compounds together.

How the values were obtained:
[1] = tested on: wheat leaf blotch fungus (Septoria tritici); assay: wheat leaf blotch control test, foliar spray 4 days before inoculation; format: in vivo
[2] = tested on: barley net blotch fungus (Pyrenophora teres); assay: barley net blotch control test, foliar spray before inoculation; format: in vivo
[3] = tested on: barley scald fungus (Rhynchosporium secalis); assay: barley scald control test, foliar spray before inoculation; format: in vivo; conditions: 200 ppm, sprayed 2 days before inoculation (Test Example 16)
[4] = tested on: kidney bean stem rot fungus (Sclerotinia sclerotiorum); assay: kidney bean stem rot control test, foliar spray before inoculation
[5] = tested on: cucumber anthracnose fungus (Colletotrichum lagenarium); assay: cucumber anthracnose control test, foliar spray before inoculation; format: in vivo; conditions: 200 ppm, sprayed one day before inoculation (Test Example 19)
[6] = tested on: wheat leaf blotch fungus (Septoria tritici); assay: wheat leaf blotch control test, foliar spray after inoculation; format: in vivo; conditions: 200 ppm, sprayed 3 days after inoculation (Test Example 13)
[7] = 500 ppm, sprayed 4 days before inoculation (Test Example 11)
[8] = 500 ppm, sprayed 2 days before inoculation (Test Example 7)
[9] = 500 ppm, kidney bean (Test Example 9)
[10] = 200 ppm, sprayed 4 days before inoculation (Test Example 12)

Structure (SMILES) | area of lesion spots on the treated plant relative to that on an untreated plant [1, 7] [%] | area of lesion spots on the treated plant relative to that on an untreated plant [2, 8] [%] | area of lesion spots on the treated plant relative to that on an untreated plant [4, 9] [%] | area of lesion spots on the treated plant relative to that on an untreated plant [5] [%] | further results
Cc1cccc(-n2nnn(C)c2=O)c1COc1cccc(-c2ccccc2)n1 [compound 1, 1-methyl-4-[3-methyl-2-(6-phenylpyridin-2-yloxymethyl)phenyl]-1,4-dihydrotetrazol-5-one] | ≤ 30 | ≤ 30 |  |  | area of lesion spots on the treated plant relative to that on an untreated plant [3]: ≤ 30%
Cc1cccc(-n2nnn(C)c2=O)c1COc1cccc(-c2ccc(F)cc2)n1 [compound 5] |  |  | ≤ 30 | ≤ 30 | 
COc1cccc(-c2cccc(OCc3c(C)cccc3-n3nnn(C)c3=O)n2)c1 [compound 15] | ≤ 30 |  | ≤ 30 |  | area of lesion spots on the treated plant relative to that on an untreated plant [6]: ≤ 30%
Cc1cccc(-n2nnn(C)c2=O)c1COc1cccc(-c2ccc(N(C)C)cc2)n1 [compound 16] |  | ≤ 30 |  | ≤ 30 | area of lesion spots on the treated plant relative to that on an untreated plant [1, 10]: ≤ 30%
Cc1cccc(-n2nnn(C)c2=O)c1COc1cccc(-c2cccnc2)n1 [compound 21] |  |  | ≤ 30 | ≤ 30 | 
Cc1cccc(-n2nnn(C)c2=O)c1COc1cc(-c2ccc(Cl)cc2)ccn1 [compound 31] |  | ≤ 30 |  | ≤ 30 | area of lesion spots on the treated plant relative to that on an untreated plant [1, 10]: ≤ 30%
Cc1cccc(-n2nnn(C)c2=O)c1COc1cccc(-c2ccccc2)c1 [compound 40] |  |  |  | ≤ 30 | area of lesion spots on the treated plant relative to that on an untreated plant ([4]; 200 ppm, kidney bean (Test Example 10)): ≤ 30%
CCc1ccc(-c2cccc(OCc3c(C)cccc3-n3nnn(C)c3=O)c2)cc1 [compound 45] |  |  | ≤ 30 |  | 
Cc1cccc(-n2nnn(C)c2=O)c1COc1cccc(-c2cccnc2)c1 [compound 54] |  |  | ≤ 30 |  | 
Cc1cccc(-n2nnn(C)c2=O)c1COc1cccc(-c2cc(F)c(F)c(F)c2)c1 [compound 59] |  | ≤ 30 | ≤ 30 |  | 
Cc1cccc(-n2nnn(C)c2=O)c1COc1cccc(-c2ccc3c(c2)OCO3)c1 [compound 60] |  |  | ≤ 30 | ≤ 30 | area of lesion spots on the treated plant relative to that on an untreated plant [6]: ≤ 30%; area of lesion spots on the treated plant relative to that on an untreated plant [3]: ≤ 30%
COc1cccc(-c2cncc(OCc3c(C)cccc3-n3nnn(C)c3=O)c2)c1 [compound 75] | ≤ 30 | ≤ 30 | ≤ 30 |  | 
Cc1cccc(-n2nnn(C)c2=O)c1COc1cncc(-c2cccc(Cl)c2)c1 [compound 77] |  | ≤ 30 | ≤ 30 |  | area of lesion spots on the treated plant relative to that on an untreated plant [1, 10]: ≤ 30%
COc1ccc(-c2cncc(OCc3c(C)cccc3-n3nnn(C)c3=O)c2)cc1 [compound 79] |  |  | ≤ 30 |  | area of lesion spots on the treated plant relative to that on an untreated plant ([2]; 200 ppm, sprayed 2 days before inoculation (Test Example 8)): ≤ 30%
Cc1cccc(-n2nnn(C)c2=O)c1COc1ccnc(-c2cccc(Cl)c2)c1 [compound 84] | ≤ 30 |  | ≤ 30 |  | 
COc1ccccc1-c1cc(OCc2c(C)cccc2-n2nnn(C)c2=O)ccn1 [compound 88] |  | ≤ 30 |  |  | area of lesion spots on the treated plant relative to that on an untreated plant [3]: ≤ 30%
COc1ccccc1-c1nccc(OCc2c(C)cccc2-n2nnn(C)c2=O)n1 [compound 94] | ≤ 30 | ≤ 30 | ≤ 30 |  | 
COc1cccc(-c2nccc(OCc3c(C)cccc3-n3nnn(C)c3=O)n2)c1 [compound 96] | ≤ 30 | ≤ 30 |  | ≤ 30 | 
